Source: PubChem BioAssay AID588463 (National Center for Advancing Translational Sciences (NCATS), 2011)
Hit rate of the full screen: of about 1,200 compounds, about 15 (1%) were called active. Roughly 7% stayed inconclusive and do not appear here. The call rests on the fitted dose curve; in most records, active means well fitted activation curve with a large enough effect; inconclusive means small, poorly fitted or top-dose-only effect; inactive means flat fitted curve, though single readings scatter. Some of the results follow.
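Further: plate controls were DMSO for no effect and maximal isoproterenol or metaproterenol response for full effect.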

These molecules were tested against Beta-2 adrenergic receptor (Homo sapiens) (UniProt P07550) (assay: qHTS assay of beta-arrestin-biased ligands of beta2-adrenergic receptor: Hit Validation). Conditions: cell-based beta-arrestin recruitment to beta2AR; Potency: activation; series mostly up to 46.1 µM; activation: at the top concentration.
Outline: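 Luminescent tTA-driven luciferase reporter in Tango cells, read after 18 h at 37 °C with compound and 15 min with substrate mix (0.15 mM ATP, 0.44 mM D-luciferin, final). Concentration-response fits categorized by curve class.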
In the case of `Cc1cc(C(=O)Nc2ccccn2)cs1`, the “activation” value is reported as inactive: -2.48%.
With `CC(C)Sc1cc(N2CCCC2)nc(-c2ccccc2)n1` the “activation” value was inactive: -2.69%.
For `S=c1nc2ccccc2c2nc(-c3ccccc3)[nH]n12`, the “activation” value was inactive: -2.79%.
In the case of `C/C(=N\NC(=S)NC1CCCCC1)c1ccc(O)cc1`, the “activation” value is reported as inactive: -4.58%.
For `O=[N+]([O-])c1ccc2nc(-c3ccccn3)[nH]c2c1`, the “activation” value was inactive: -5.59%.
For `Oc1ccc(NCc2cccc(OCc3ccccc3)c2)cc1`, the “activation” value was inactive: -1.75%.
With `S=c1c2c(nc3nc[nH]n13)CCC2` the “activation” value was inactive: -1.96%.
For `Cc1cc(C(=O)CN2C(=O)NC3(CCCc4ccccc43)C2=O)c(C)n1C` (stereo unspecified), the “activation” value was inactive: -2.94%.
With `Cc1nnc(N/N=C/C2CC=CCC2)[nH]c1=O` (stereo unspecified) the “activation” value was inactive: -2.25%.
`C/C(=N\NC(=S)NCc1ccccc1)C1CCCCC1` was tested, and the “activation” value was inactive: -2.96%.
With `Cc1ccc(N=Nc2c(C)[nH]n(C(N)=S)c2=O)cc1` the “activation” value was inactive: -2.78%.
With `COCCNC(=S)N/N=C(\C)c1ccc(Cl)c(Cl)c1Cl` the “activation” value was inactive: -3.1%.
`CCNc1nc(NCC)nc(-n2nc(C)cc2C)n1` was tested, and the “activation” value was inactive: -2.18%.
`COc1ccc(NC(=O)c2cc3c(-c4ccc(OC)c(OC)c4)nn(C)c3s2)cc1OC` was tested, and the “activation” value was inactive: -0.0302%.
In the case of `O=C(CSc1ccc(-c2nc3ccccc3[nH]2)cn1)Nc1ccc(S(=O)(=O)NC2CC2)cc1`, the “activation” value is reported as inactive: 6.85%.
With `Cc1ccccc1NC(=O)c1cc(C(=O)c2cc(Cl)ccc2O)cn(-c2ccccc2C)c1=O` the “activation” value was inactive: 5.37%.
For `Cc1ccc(C)c(NC(=O)CSc2nc3nc(-c4cccs4)cc(C(F)(F)F)c3c(=O)[nH]2)c1`, the “activation” value was inactive: -5.44%.
With `CN(C)C(=O)CSc1cccc2cccnc12` the “activation” value was inactive: -2.43%.
In the case of `COCCNC(=S)N/N=C(\C)c1cccc(OC)c1`, the “activation” value is reported as inactive: -1.73%.
With `Cc1ccc2cccc(SCC(=O)N3CCOCC3)c2n1` the “activation” value was inactive: -5.04%.
With `CC(=O)O[C@H]1CC(C)(C)C(=C=C/C(C)=C/C=C/C(C)=C/C=C/C=C(C)/C=C/C=C(\C)C(=O)C[C@@]23O[C@]2(C)C[C@@H](O)CC3(C)C)[C@](C)(O)C1` the “activation” value was inactive: 0.18%.
In the case of `S=C(N/N=C/c1ccco1)NC1CC2CCC1C2` (stereo unspecified), the “activation” value is reported as inactive: -2.42%.
In the case of `COc1ccc(/C(C)=N/NC(=S)Nc2cc(C)ccc2C)cc1`, the “activation” value is reported as inactive: -2.04%.
For `CCC(=O)NC(=S)Nc1cccc(Cl)c1N1CCCCC1`, the “activation” value was inactive: -4.27%.
`C/C(=N\NC(=S)NC1CCCCC1)c1ccc(OC(F)F)cc1OC(F)F` was tested, and the “activation” value was inactive: -2.86%.
For `CCOC(=O)c1cnc(-n2nc(C)cc2C)nc1N(C)C`, the “activation” value was inactive: -9.18%.
`O=C(N/N=C/C=C\c1ccco1)c1cccs1` was tested, and the “activation” value was inactive: -3.24%.
In the case of `COc1ccc(CN(CCC#N)C(=S)NC(=O)c2ccccc2)cc1`, the “activation” value is reported as inactive: -3.87%.
`Cc1ccccc1NS(=O)(=O)c1ccc2oc(=O)ccc2c1` was tested, and the “activation” value was inactive: -3.24%.
`c1ccc(CCNc2nc(-c3ccccn3)cs2)cc1` was tested, and the “activation” value was inactive: -1.29%.
`CCOc1ccc2nc(NC(=S)N(C)C)sc2c1` was tested, and the “activation” value was inactive: -1.49%.
In the case of `Cc1ccc(C(C)NC(=S)NCc2ccc(F)cc2)c(C)c1` (stereo unspecified), the “activation” value is reported as inactive: -2.52%.
With `CCOC(=O)C(NC(=O)c1ccccc1)(N1CCOCC1)C(F)(F)F` (stereo unspecified) the “activation” value was inactive: -2.15%.
With `N#C/C(=C\c1ccc(Cl)cc1)c1nc2ccccc2o1` the “activation” value was inactive: -0.745%.
In the case of `O=C(c1cccs1)N1N=C(c2ccccc2)CC1c1ccc(O)cc1` (stereo unspecified), the “activation” value is reported as inactive: 6.49%.
For `CCn1c(SCC(=O)Nc2oc(-c3ccccc3)c(-c3ccccc3)c2C#N)nnc1-c1ccco1`, the “activation” value was inactive: 6.33%.
For `CC(=O)Nc1ccc(Nc2cc(C)nc3c(-c4ccccc4)c(C)nn23)cc1`, the “activation” value was inactive: 0.389%.
With `CC(=O)/C=C/n1c(=S)oc2ccccc21` the “activation” value was inactive: -2.92%.
With `O=C(COC(=O)c1ccccn1)c1ccc([N+](=O)[O-])cc1` the “activation” value was inactive: -3.02%.
With `COc1cc(-c2nc(-c3ccccc3)c(-c3cc([N+](=O)[O-])ccc3C)[nH]2)cc(OC)c1OC` the “activation” value was inactive: -0.686%.
For `O=C1C[C@@H](c2ccc(O[C@@H]3O[C@H](CO)[C@@H](O)[C@H](O)[C@H]3O)cc2)Oc2cc(O)ccc21`, the “activation” value was inactive: -1.43%.
In the case of `O=c1[nH]c(CSc2cccc[n+]2[O-])nc2ccccc12`, the “activation” value is reported as inactive: -1.21%.
`O=c1c2cn[nH]c2nc(SCc2ccccc2F)n1-c1ccc(Br)cc1` was tested, and the “activation” value was inactive: 4.7%.
For `CN1CCN(C(c2cccnc2)c2ccc3cccnc3c2O)CC1` (stereo unspecified), the “activation” value was inactive: -0.879%.
For `COc1ccc(C2CC3(CC(C)(C)NC(=S)N3)Oc3cc(O)cc(C)c32)cc1` (stereo unspecified), the “activation” value was inactive: 3.78%.
With `C=CCn1c(O)c(N=NC(=S)Nc2ccccc2F)c2cc(S(=O)(=O)N3CCOCC3)ccc21` the “activation” value was inactive: -3.66%.
In the case of `CC(=O)c1ccc(NC(=O)C(C)OC(=O)C2CC(=O)N(c3ccc4c(c3)OCCO4)C2)cc1` (stereo unspecified), the “activation” value is reported as inactive: -3.38%.
With `Cc1ccc(C)c(NC(=S)N=Nc2c(O)n(C)c3ccc(S(=O)(=O)N4CCOCC4)cc23)c1` the “activation” value was inactive: 0.069%.
In the case of `Oc1ccc(NCc2ccc(OCc3ccccc3)cc2)cc1`, the “activation” value is reported as inactive: -0.106%.
For `CCCCNC(=S)N/N=C/c1cccc(OCC)c1O`, the “activation” value was inactive: -2.34%.
In the case of `COc1cccc(/C=N/Nc2nc(-c3cccnc3)nc3ccccc23)c1`, the “activation” value is reported as inactive: -1.3%.
With `O=C(Oc1cccc2cccnc12)c1ccc2c(c1)OCCO2` the “activation” value was inactive: -2.9%.
For `COc1ccccc1NS(=O)(=O)c1ccc(NC(=O)Cc2cccs2)cc1`, the “activation” value was inactive: -1.57%.
In the case of `CN(C(=O)CSc1ccncc1)C1CCCN(Cc2ccccc2F)C1` (stereo unspecified), the “activation” value is reported as inactive: -2.18%.
With `Oc1ccc(NCc2cccc(OCc3ccc(F)cc3)c2)cc1` the “activation” value was inactive: -1.88%.
`CCN(CC)CCCNC(=O)CCC(=O)NNc1nc2ccccc2c2nc(C)nn12` was tested, and the “activation” value was inactive: -1.51%.
`O=[N+]([O-])c1ccc(OCC(O)CN(C2CCCCC2)C2CCCCC2)cc1` (stereo unspecified) was tested, and the “activation” value was inactive: -0.892%.
`COc1cnc(-c2ccccn2)nc1Sc1ccccc1Cl` was tested, and the “activation” value was inactive: -3.15%.
For `O=C(Oc1c(CN2CCOCC2)cc(Cl)c2cccnc12)c1ccccc1Br`, the “activation” value was inactive: 7.38%.
`CC(C)NC(=S)NN=C1CCC(c2ccccc2)CC1` (stereo unspecified) was tested, and the “activation” value was inactive: -1.07%.
For `Cc1ccnc(NC(=O)c2c(-c3ccccc3Cl)noc2C)c1`, the “activation” value was inactive: -2.92%.
In the case of `Cc1nn2c(c1-c1ccccc1)N=C(c1ccco1)CC2c1ccccc1` (stereo unspecified), the “activation” value is reported as inactive: 2.5%.
With `CCNc1nc(NC(C)CC)nc(ON=C(C)C)n1` (stereo unspecified) the “activation” value was inactive: -1.44%.
For `O=C(CN1CCN(Cc2ccccc2)CC1)c1ccc(Br)cc1`, the “activation” value was inactive: -2.66%.
For `CCNC(=S)N/N=C/c1sccc1C`, the “activation” value was inactive: -3.21%.
`Cc1ccc(NC(=S)NC(NC(=O)c2ccco2)C(Cl)(Cl)Cl)cc1` (stereo unspecified) was tested, and the “activation” value was inactive: 6.67%.
In the case of `CC(=O)Nc1nonc1NC(=O)CSc1nc2ccccc2o1`, the “activation” value is reported as inactive: -7.81%.
For `O=C(CSc1cccc[n+]1[O-])CSc1cccc[n+]1[O-]`, the “activation” value was inactive: -4.27%.
With `Cc1cc(C)cc(-n2c3nc4ccccc4nc3c3c(=O)n(Cc4ccco4)cnc32)c1` the “activation” value was inactive: -1.95%.
With `CCN(CC(=O)Nc1ccccc1SC)Cc1nc2ccccc2c(=O)[nH]1` the “activation” value was inactive: -4.21%.
With `CCCCc1nc(SCC(=O)N2CCOCC2)c2c(=O)n(C)c(=O)n(C)c2n1` the “activation” value was inactive: -5.25%.
